Here are results for 15 compounds from the supplement of paper PMC4635364.

Structures can show the parent of a compound that is named as a salt. This is one part of the list. This data set is noisy: repeats of one test often differ as much as different tests do.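 ReNCell VM, a human fetal ventral-midbrain neural progenitor line, was differentiated without mitogens. Blinded raters scored images stained for doublecortin (early neurons) or tyrosine hydroxylase (dopaminergic neurons) against untreated wells (0 = no change). Scores were averaged across repeats and both raters, and compounds averaging 2 or more were selected as hits for retesting.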

The test system of one assay is ReNCell VM. Nature of the assay: neuronal differentiation score (DCX+ cell fraction vs untreated, manual image score) (score (-3 to 3)); higher = more neuronal differentiation. To be noted: library: LOPAC; 2 uM; 2 weeks.
As to `CC(N)=NCCCC[C@H](N)C(=O)O` [L-N6-(1-Iminoethyl)lysine hydrochloride], the neuronal differentiation score is inactive: 0.

Regarding `Nc1nc2[nH]c(=O)cnc2c(=O)[nH]1` [Isoxanthopterin], the neuronal differentiation score is inactive: 0.

`CN[C@H](CC(C)C)C(=O)N[C@H]1C(=O)N[C@@H](CC(N)=O)C(=O)N[C@H]2C(=O)N[C@H]3C(=O)N[C@H](C(=O)N[C@H](C(=O)O)c4cc(O)cc(O)c4-c4cc3ccc4O)[C@H](O)c3ccc(c(Cl)c3)Oc3cc2cc(c3O[C@@H]2O[C@H](CO)[C@@H](O)[C@H](O)[C@H]2O[C@H]2C[C@](C)(N)[C@H](O)[C@H](C)O2)Oc2ccc(cc2Cl)[C@H]1O` [Vancomycin hydrochloride from Streptomyces orientalis]: the neuronal differentiation score is inactive: 0.

In the case of `Nc1nc2ccc(OC(F)(F)F)cc2s1` [Riluzole], the neuronal differentiation score is inactive: 0.

Consider `N[C@@H]1CONC1=O` [D-Cycloserine], for which the neuronal differentiation score was inactive: 0.

Regarding `CCCCOC(=O)NS(=O)(=O)c1sc(CC(C)C)cc1-c1ccc(Cn2c(CC)nc3c(C)cc(C)nc32)cc1`, the neuronal differentiation score is inactive: 0.

`NC(N)=NCc1cccc(I)c1` [m-Iodobenzylguanidine hemisulfate]: the neuronal differentiation score was inactive: 0.

As for `CC(C)NC[C@@H](O)COc1ccc(CC(N)=O)cc1` [R(+)-Atenolol], the neuronal differentiation score is active: 2.

With `CNC[C@H](O)c1cccc(O)c1` [Phenylephrine hydrochloride], the neuronal differentiation score is inactive: 0.

The assay is the same for the next values; noted with them: library: Prestwick; 2 uM; 2 weeks.
On to `CCCN[C@H]1CCc2nc(N)sc2C1` [Pramipexole], for which the neuronal differentiation score is inactive: 0.

Consider `Nc1ccc(/N=N/c2ccccc2)c(N)n1` [Phenazopyridine hydrochloride], for which the neuronal differentiation score was inactive: 0.

For the compound `CCN1CCN(C(=O)N[C@@H](C(=O)N[C@@H]2C(=O)N3C(C(=O)O)=C(CSc4nnnn4C)CS[C@H]23)c2ccc(O)cc2)C(=O)C1=O` [Cefoperazone dihydrate], the neuronal differentiation score is inactive: 0.

Take `CC(C)NC[C@H](O)COc1ccc(CC(N)=O)cc1` [(S)-(-)-Atenolol]: the neuronal differentiation score was inactive: 0.

Consider `CC(=O)Oc1cccc2c1C(=O)c1c(OC(C)=O)cc(C(=O)O)cc1C2=O` [Diacerein], for which the neuronal differentiation score is inactive: 0.

`CN1[C@@H]2CC[C@H]1C[C@@H](OC(=O)c1c[nH]c3ccccc13)C2` [Tropisetron HCl]: the neuronal differentiation score is inactive: 0.
